Laboratory results taken from PMC3743553 (Journal of child neurology, 2012).

Assays:
FXN messenger RNA = FXN messenger RNA by qRT-PCR in peripheral blood mononuclear cells; assay type: cell-based, human; settings: 10 μM, 48 hours
YG8R mouse = settings: cited from earlier work
[1] = rat; cited from earlier work

Cc1ccc(C(=O)NCCCCCC(=O)Nc2ccccc2N)cc1 [compound 109]
FXN messenger RNA, cells from patients with Friedreich ataxia (FXN messenger RNA; peripheral blood mononuclear cells from affected individuals): significant increases
FXN messenger RNA, wild-type alleles in cells from unaffected individuals (FXN messenger RNA; peripheral blood mononuclear cells from unaffected individuals): only a very small effect
acetylation of specific histone residues at the FXN locus (YG8R mouse): significantly increased
brain aconitase enzyme activity (YG8R mouse): significant increases
frataxin protein expression in brain tissue (YG8R mouse): significantly increased
global histone H3 and H4 acetylation of brain tissue (YG8R mouse): increased
neuronal pathology of the dorsal root ganglia (YG8R mouse): reduction
locomotor activity (YG8R mouse; long-term treatment): increased
motor coordination (YG8R mouse; long-term treatment): improvement
brain penetration (brain/plasma ratio at tmax) [1]: 0.15
